Results are given in words; binding and its absence hold for the method and conditions named. Binding seen in cells or lysates may run through a third protein. A yes stands for co-enrichment or nearness to the bait. Other partners may have been found. No binding means not detected with the bait. Tags and fused reporters may be left off the sequences shown.
What was measured:
Test in all cases: affinity purification with mass spectrometry; total proteins of inflorescence tissues of epitope-tagged transgenic plants in IP buffer (50 mM Tris-HCl pH 7.6, 150 mM NaCl, 5 mM MgCl2, 10% glycerol, 0.1% NP-40, 0.5 mM DTT), precipitated with anti-Flag or anti-Myc antibodies 2 h at 4 °C, five washes, MS
[1] = target: T1, AIPP2, epitope-tagged in transgenic Arabidopsis (Arabidopsis) (UniProt F4IYH6)
T1 sequence: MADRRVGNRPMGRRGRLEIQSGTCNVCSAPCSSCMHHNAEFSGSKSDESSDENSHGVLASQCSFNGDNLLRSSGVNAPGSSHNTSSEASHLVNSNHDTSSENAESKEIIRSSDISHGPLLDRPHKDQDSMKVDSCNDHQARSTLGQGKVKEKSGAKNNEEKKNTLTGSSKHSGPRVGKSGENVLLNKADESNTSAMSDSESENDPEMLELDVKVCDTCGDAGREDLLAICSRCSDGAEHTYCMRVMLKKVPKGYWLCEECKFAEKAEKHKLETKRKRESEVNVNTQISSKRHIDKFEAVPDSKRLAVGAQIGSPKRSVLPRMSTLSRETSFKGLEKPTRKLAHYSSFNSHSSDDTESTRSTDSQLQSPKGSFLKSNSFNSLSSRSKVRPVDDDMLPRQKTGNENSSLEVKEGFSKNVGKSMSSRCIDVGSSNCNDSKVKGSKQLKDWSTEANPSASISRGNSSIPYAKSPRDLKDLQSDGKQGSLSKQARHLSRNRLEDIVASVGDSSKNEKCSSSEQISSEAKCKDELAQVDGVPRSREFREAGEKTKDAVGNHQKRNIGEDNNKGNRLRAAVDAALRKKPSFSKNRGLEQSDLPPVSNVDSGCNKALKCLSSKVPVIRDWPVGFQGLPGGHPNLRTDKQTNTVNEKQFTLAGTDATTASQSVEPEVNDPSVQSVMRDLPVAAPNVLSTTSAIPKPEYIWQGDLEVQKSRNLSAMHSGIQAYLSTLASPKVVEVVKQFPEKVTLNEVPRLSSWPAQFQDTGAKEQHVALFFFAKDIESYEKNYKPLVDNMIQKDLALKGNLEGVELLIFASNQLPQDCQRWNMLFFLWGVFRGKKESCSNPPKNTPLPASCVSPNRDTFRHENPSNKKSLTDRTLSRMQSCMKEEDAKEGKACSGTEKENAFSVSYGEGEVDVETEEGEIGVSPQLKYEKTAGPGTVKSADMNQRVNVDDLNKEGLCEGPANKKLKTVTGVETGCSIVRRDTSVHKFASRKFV

[2] = target: T2, ASI1-IMMUNO… PROTEIN 3 (AIPP3), epitope-tagged in transgenic Arabidopsis (Arabidopsis) (UniProt Q8RXT5)
T2 sequence: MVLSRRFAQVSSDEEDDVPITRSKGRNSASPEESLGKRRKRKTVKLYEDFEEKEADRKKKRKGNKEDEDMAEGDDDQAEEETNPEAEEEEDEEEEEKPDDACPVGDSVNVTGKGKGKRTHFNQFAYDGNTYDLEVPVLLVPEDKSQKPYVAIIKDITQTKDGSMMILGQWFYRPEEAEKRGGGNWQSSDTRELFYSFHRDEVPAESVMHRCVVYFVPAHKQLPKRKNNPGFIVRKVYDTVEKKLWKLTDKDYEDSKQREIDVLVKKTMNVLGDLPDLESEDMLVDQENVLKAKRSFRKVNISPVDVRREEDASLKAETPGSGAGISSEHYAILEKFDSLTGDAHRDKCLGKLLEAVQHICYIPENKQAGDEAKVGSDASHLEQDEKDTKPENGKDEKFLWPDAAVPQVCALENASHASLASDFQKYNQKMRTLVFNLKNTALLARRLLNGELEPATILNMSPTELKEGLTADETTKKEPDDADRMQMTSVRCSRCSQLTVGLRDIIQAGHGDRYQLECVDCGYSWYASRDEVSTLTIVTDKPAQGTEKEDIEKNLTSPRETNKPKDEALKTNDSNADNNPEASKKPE

[3] = target: T3, CPL2, epitope-tagged in transgenic Arabidopsis (Arabidopsis) (UniProt Q5YDB5)
T3 sequence: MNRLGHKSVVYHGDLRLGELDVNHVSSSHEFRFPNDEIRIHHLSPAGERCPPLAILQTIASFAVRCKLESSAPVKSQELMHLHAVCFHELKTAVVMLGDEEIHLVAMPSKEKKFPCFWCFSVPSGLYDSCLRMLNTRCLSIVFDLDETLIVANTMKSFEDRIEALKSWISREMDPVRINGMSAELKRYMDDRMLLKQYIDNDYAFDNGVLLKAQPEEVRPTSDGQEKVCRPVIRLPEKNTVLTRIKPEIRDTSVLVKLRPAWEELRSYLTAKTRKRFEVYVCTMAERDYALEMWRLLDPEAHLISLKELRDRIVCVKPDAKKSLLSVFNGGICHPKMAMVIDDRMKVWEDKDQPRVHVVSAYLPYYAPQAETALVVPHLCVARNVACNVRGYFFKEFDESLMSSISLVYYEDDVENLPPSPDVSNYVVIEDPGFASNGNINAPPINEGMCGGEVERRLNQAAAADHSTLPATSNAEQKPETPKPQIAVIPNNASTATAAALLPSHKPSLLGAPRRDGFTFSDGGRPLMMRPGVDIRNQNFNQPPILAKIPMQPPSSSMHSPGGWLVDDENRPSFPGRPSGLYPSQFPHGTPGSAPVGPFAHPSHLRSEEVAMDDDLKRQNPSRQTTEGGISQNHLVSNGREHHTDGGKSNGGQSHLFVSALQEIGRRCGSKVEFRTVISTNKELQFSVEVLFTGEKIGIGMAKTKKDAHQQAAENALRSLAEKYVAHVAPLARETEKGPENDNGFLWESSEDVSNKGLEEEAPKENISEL

Measured: binding

B1: EMBRYONIC FLOWER 1 (EMF1) (protein, UniProt Q9LYD9 1-1096)
chain: MGSSIKINSISIDLAGAANEIDMVKCDHFSMRGFVAETRERDLRKCWPFSEESVSLVDQQSYTLPTLSVPKFRWWHCMSCIKDIDAHGPKDCGLHSNSKAIGNSSVIESKSKFNSLTIIDHEKEKKTDIADNAIEEKVGVNCENDDQTATTFLKKARGRPMGASNVRSKSRKLVSPEQVGNNRSKEKLNKPSMDISSWKEKQNVDQAVTTFGSSEIAGVVEDTPPKATKNHKGIRGLMECDNGSSESINLAMSGLQRRKSRKVRLLSELLGNTKTSGGSNIRKEESALKKESVRGRKRKLLPENNYVSRILSTMGATSENASKSCDSDQGNSESTDSGFDRTPFKGKQRNRRFQVVDEFVPSLPCETSQEGIKEHDADPSKRSTPAHSLFTGNDSVPCPPGTQRTERKLSLPKKKTKKPVIDNGKSTVISFSNGIDGSQVNSHTGPSMNTVSQTRDLLNGKRVGGLFDNRLASDGYFRKYLSQVNDKPITSLHLQDNDYVRSRDAEPNCLRDFSSSSKSSSGGWLRTGVDIVDFRNNNHNTNRSSFSNLKLRYPPSSTEVADLSRVLQKDASGADRKGKTVMVQEHHGAPRSQSHDRKETTTEEQNNDDIPMEIVELMAKNQYERCLPDKEEDVSNKQPSQETAHKSKNALLIDLNETYDNGISLEDNNTSRPPKPCSSNARREEHFPMGRQQNSHDFFPISQPYVPSPFGIFPPTQENRASSIRFSGHNCQWLGNLPTVGNQNPSPSSFRVLRACDTCQSVPNQYREASHPIWPSSMIPPQSQYKPVSLNINQSTNPGTLSQASNNENTWNLNFVAANGKQKCGPNPEFSFGCKHAAGVSSSSSRPIDNFSSESSIPALHLLSLLDPRLRSTTPADQHGNTKFTKRHFPPANQSKEFIELQTGDSSKSAYSTKQIPFDLYSKRFTQEPSRKSFPITPPIGTSSLSFQNASWSPHHQEKKTKRKDTFAPVYNTHEKPVFASSNDQAKFQLLGASNSMMLPLKFHMTDKEKKQKRKAESCNNNASAGPVKNSSGPIVCSVNRNPADFTIPEPGNVYMLTGEHLKVRKRTTFKKKPAVCKQDAMKQTKKPVCPPTQNA
no binding: all assays above

Reference: PMC7718874, “Coupling of H3K27me3 recognition with transcriptional repression through the BAH-PHD-CPL2 complex in Arabidopsis” (Nature Communications, 2020)
